Results: PubChem BioAssay AID493014 (National Center for Advancing Translational Sciences (NCATS), 2011)
This is one part of the list. These are further read-outs of the screen, such as a control signal, another cell line or another target. No call is given for them. The list favours compounds with an active or inconclusive main result. Words in brackets tell the shape of the fitted curve; partial curves, single points and poor fits give uncertain potencies.

Test: qHTS Assay to Find Inhibitors of Chronic Active B-Cell Receptor Signaling
Conditions: ABC-DLBCL IkBa-CBG/CBR reporter, luminescence ratio (green luciferase fused to IkBa over red control in TMD8 lymphoma cells), 4 h
Method in brief: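 Concentration-response series (up to 46 uM) were applied to TMD8 dual-reporter cells for 4 h at 37C with doxycycline. Green/red ratio, after filter-overlap correction, defined %Activity; red signal alone was normalised to basal cells and zero luminescence.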

[1] = measured here: CBR red luminescence, cell number
[2] = measured here: IkBa-CBG green luminescence

SMILES | AC50 [1] | AC50 [2]
O=C(CSc1nnc(-c2cccc(F)c2)o1)Nc1nncs1 | 11.2 µM [falling, single point] | –
CC(C)Oc1cccc(C(=O)NC2=NCCS2)c1 | 0.282 µM [rising, full curve, poor fit] | –
Cc1cccc(CC(Cc2nc3ccccc3[nH]2)c2nc3ccccc3[nH]2)c1 (configuration not stated) | 29.1 µM [falling, single point] | –
O=C(CSc1c2c(nc3ccc(Cl)cc13)CCCC2)NCc1ccco1 | 16.4 µM [falling, partial curve, poor fit] | –
O=C(CSc1nnc(-c2ccc(O)cc2)o1)Nc1ccccc1 | 11.2 µM [falling, partial curve] | –
Cc1ccc(C(=O)N/N=C/C=C/c2ccccc2)o1 | 5.62 µM [falling, partial curve] | –
Cc1cc(C(=O)NCC(=O)OC(C(=O)Nc2cc(C(F)(F)F)ccc2Cl)c2ccccc2)ccc1[N+](=O)[O-] (configuration not stated) | 3.66 µM [rising, full curve, poor fit] | –
O=C(NN=Cc1ccccc1Cl)c1ccc(-n2cnnn2)cc1 | 20.6 µM [falling, partial curve] | –
Cn1c(SCC(=O)N2CCCc3ccccc32)nc2cccnc21 | 1.46 µM [falling, full curve, poor fit] | –
CC1CCCCN1C(=O)c1cc(-c2ccc(Cl)c(Cl)c2)on1 (configuration not stated) | 0.794 µM [rising, partial curve, poor fit] | –
Cc1cc(NC(=O)c2ccccc2)nc(C)n1 | 1 µM [falling, full curve] | –
Cc1ccc(C2=NN(Cc3nnc(-c4ccccc4)o3)C(=O)SC2)cc1 | 16.4 µM [falling, partial curve] | –
CS(=O)(=O)Nc1nc2n(n1)C(c1ccc(F)cc1)CC(c1ccccc1)N2 (configuration not stated) | 1.26 µM [rising, full curve] | –
O=C1SC(SCc2ccccc2Cl)=N/C1=C\c1ccc(C(=O)O)cc1 | 22.4 µM [falling, partial curve] | –
Oc1ccc(-c2nc3cnccn3c2Nc2ccc3c(c2)OCCO3)cc1 | – | 10 µM [falling, partial curve]
Cc1cccc(N2C(=O)C(Cl)=C(Nc3c(C)n(C)n(-c4ccccc4)c3=O)C2=O)c1C | 32.6 µM [falling, single point] | –
Cc1cc(C)c(OCC(=O)Nc2nnc(C3CC3)s2)c(C)c1 | 18.4 µM [falling, single point] | –
Cc1cccc(-n2ncc3c(NCc4ccc5c(c4)OCO5)ncnc32)c1 | 5.8 µM [falling, partial curve] | –
CCCn1c(N)c(C(c2ccc(C(=O)OC)cc2)N2CCN(c3ccccc3)CC2)c(=O)[nH]c1=O (configuration not stated) | 25.1 µM [falling, single point] | –
COc1ccccc1/C=C/C(=O)Nc1nc(N)n(-c2ccccc2)n1 | 2.82 µM [falling, full curve, poor fit] | –
COc1ccc(CN(C)CC(=O)NC(=O)Nc2ccccc2F)cc1 | 6.51 µM [rising, partial curve] | –
C=CCOC(=O)/C=C/C(=O)NC(N)=O | 35.5 µM [falling, single point] | –

For reference, some entries already given.
SMILES | AC50 [1] | AC50 [2]
Cc1cccc(CC(Cc2nc3ccccc3[nH]2)c2nc3ccccc3[nH]2)c1 (configuration not stated) | 29.1 µM [falling, single point] | –
O=C(CSc1c2c(nc3ccc(Cl)cc13)CCCC2)NCc1ccco1 | 16.4 µM [falling, partial curve, poor fit] | –

Remaining list, next part

SMILES | AC50 [1] | AC50 [2]
O=C(c1ccc(Cn2c(=S)[nH]c3ccc(Br)cc3c2=O)cc1)N1CCN(C2CCCCC2)CC1 | 0.282 µM [falling, full curve, poor fit] | –
CCOC(=O)c1sc(S(C)(=O)=O)c2c1CC(C)(C)C/C2=N/O | 35.5 µM [rising, partial curve, poor fit] | –
O=C(CN1CCN(Cc2ccc(Cl)cc2)CC1)N/N=C/c1c[nH]c2ccccc12 | 29.1 µM [falling, single point] | –
CSCCC(NC(N)=O)C(=O)NCC1CCCCC1 (configuration not stated) | 29.1 µM [rising, single point] | –
CC1(CC(=O)Nc2ccccc2)NC(=S)N(c2ccccc2)N1 (configuration not stated) | 20 µM [falling, single point] | –
O=C(CSc1nnnn1C1CCCC1)Nc1ccccc1F | 15.8 µM [falling, partial curve, poor fit] | –
Cc1cc(C(=O)OCC(=O)Nc2nc(-c3ccccc3)cs2)c(C)o1 | 5.62 µM [rising, single point] | –
CCCc1cc(NCCCO)n2c(nc3ccccc32)c1C#N | 35.5 µM [falling, single point] | –
O=C(Nc1cc2c3c(c1)CC(=O)N3CCC2)c1ccco1 | 6.51 µM [rising, full curve, poor fit] | –
Cc1ccc(C)c(OCCC(=O)NNC(=O)c2cc(C)oc2C)c1 | 29.1 µM [falling, partial curve, poor fit] | –
CCSc1nc2sc3c(c2c(=O)n1-c1ccccc1)CCN(C(C)C)C3 | 31.6 µM [falling, single point] | 15.8 µM [rising, partial curve, poor fit]
Fc1cccc2ncnc(OCc3ccccc3)c12 | 6.31 µM [falling, single point] | –
Cc1ccc(S(=O)(=O)N/N=C2/CC(=O)CC(C)(C)C2)cc1[N+](=O)[O-] | 17.8 µM [falling, single point] | 35.5 µM [rising, partial curve, poor fit]
CCOC(=O)Cc1csc(CC(N)=O)n1 | 0.178 µM [falling, full curve, poor fit] | –
Cc1ccc(NS(=O)(=O)c2ccc(C(=O)N3CCCC(C(F)(F)F)C3)cc2)cc1 (configuration not stated) | 0.13 µM [rising, full curve, poor fit] | –
CC1(C)C(=O)Nc2ccccc2N1C(=O)COC(=O)c1ccc(Cl)c(S(=O)(=O)NCc2ccccc2)c1 | 0.0259 µM [falling, single point] | –
C=CCNc1ncnc2c1cnn2-c1ccc(OC)cc1 | 11.2 µM [falling, single point] | –
Cn1c(SCC(=O)c2ccccc2)nnc1-c1cccc(N)c1 | 18.4 µM [falling, partial curve] | –
Cc1ccccc1C(=O)N1CCN(c2ccc(NC(=O)c3cccnc3)cc2)CC1 | 0.316 µM [falling, full curve, poor fit] | –
Cc1ccccc1C(=O)NNC(=S)NC(=O)c1ccccc1 | 18.4 µM [falling, partial curve] | –
COc1ccc(NC(=O)C/C(C)=N/NC(=O)C(=O)Nc2cccc(Cl)c2C)c(OC)c1 | 4.47 µM [falling, full curve, poor fit] | –
COc1ccc2nc(C)cc(SCC(=O)N/N=C/c3ccc(O)c(O)c3)c2c1 | 2.82 µM [falling, partial curve, poor fit] | –

SMILES | AC50 [1] | AC50 [2]
CCOC(=O)c1ccc(Nc2nc(=O)c3cccnc3s2)cc1 | 2.82 µM [falling, full curve, poor fit] | –
CN(C(=O)c1ccccn1)c1nnc(-c2ccccn2)s1 | 11.2 µM [falling, single point] | –
CC(=O)Nc1ccc(C(=O)OCc2ccc(F)cc2)cc1 | 3.16 µM [rising, full curve, poor fit] | –
O=S(=O)(O)c1nc2ccccc2n1Cc1ccccc1 | 5.01 µM [rising, single point] | –
CCOC(=O)c1nnc(-c2cccs2)nc1Oc1ccccc1C(=O)OC | 14.6 µM [falling, partial curve] | –
COCCNC(=O)c1cc2c3ccccc3n(C)c2s1 | 6.31 µM [falling, single point] | –
CCn1ncc(CN2CCCC(C(=O)Nc3cccc(-c4cc5ccccc5[nH]4)c3)C2)c1C (configuration not stated) | 12.6 µM [falling, partial curve, poor fit] | –
COc1ccc(NC(=O)/C=C/c2ccco2)cn1 | 10 µM [falling, partial curve, poor fit] | –
CC(C)c1ccc(O)c(N)c1 | 23.1 µM [falling, partial curve, poor fit] | –
Cc1cc(-n2c(C)cc(C(=O)CSc3nncn3C)c2C)no1 | 29.1 µM [rising, single point] | –
CC[C@H](C)[C@@H](NC(=O)O[C@@H]1C(=O)c2cc(Br)ccc2O[C@H]1c1ccc2c(c1)OCO2)C(=O)OC | 23.1 µM [rising, partial curve, poor fit] | –
COc1ccccc1/C=C/C=N/n1c(-c2ccc(F)cc2)n[nH]c1=S | 1.41 µM [falling, full curve] | –
Nc1ccc(-c2nnn(Cc3ccccc3F)n2)cc1 | 2.82 µM [rising, partial curve, poor fit] | –
Cc1ccc(C(C)C)c(OCC(=O)Nc2ccc3c(c2)nc(CCN2CCCCC2)n3C)c1 | 35.5 µM [falling, single point] | –
CCOc1c(Br)cc(C2NS(=O)(=O)N=C3CCCCCN32)cc1OC (configuration not stated) | 14.1 µM [rising, partial curve, poor fit] | 22.4 µM [falling, single point]
CCn1c(=O)n(CC)c2cc(N3CCCC3)c(NC(=O)c3ccccc3Br)cc21 | 3.98 µM [rising, single point] | –
Cn1c(CNc2ccc(Cl)cc2)nc2ccccc21 | 2.06 µM [rising, partial curve, poor fit] | –
Cc1ccc(C(=O)Nc2ncc(Cc3ccccc3)s2)o1 | 11.2 µM [falling, single point] | –
Nc1c(O)ccc2c1C(=O)c1ccccc1C2=O | – | 14.6 µM [rising, partial curve, poor fit]
COc1ccc(OC)c(-c2c(=O)n(OCc3ccccc3Br)c3ccccc3[n+]2[O-])c1 | 3.26 µM [rising, single point] | –

Molecules shown so far with an aryl methoxy group (9):
SMILES | AC50 [1] | AC50 [2]
COc1ccccc1/C=C/C(=O)Nc1nc(N)n(-c2ccccc2)n1 | 2.82 µM [falling, full curve, poor fit] | –
COc1ccc(CN(C)CC(=O)NC(=O)Nc2ccccc2F)cc1 | 6.51 µM [rising, partial curve] | –
C=CCNc1ncnc2c1cnn2-c1ccc(OC)cc1 | 11.2 µM [falling, single point] | –
COc1ccc(NC(=O)C/C(C)=N/NC(=O)C(=O)Nc2cccc(Cl)c2C)c(OC)c1 | 4.47 µM [falling, full curve, poor fit] | –
COc1ccc2nc(C)cc(SCC(=O)N/N=C/c3ccc(O)c(O)c3)c2c1 | 2.82 µM [falling, partial curve, poor fit] | –
COc1ccc(NC(=O)/C=C/c2ccco2)cn1 | 10 µM [falling, partial curve, poor fit] | –
COc1ccccc1/C=C/C=N/n1c(-c2ccc(F)cc2)n[nH]c1=S | 1.41 µM [falling, full curve] | –
CCOc1c(Br)cc(C2NS(=O)(=O)N=C3CCCCCN32)cc1OC (configuration not stated) | 14.1 µM [rising, partial curve, poor fit] | 22.4 µM [falling, single point]
COc1ccc(OC)c(-c2c(=O)n(OCc3ccccc3Br)c3ccccc3[n+]2[O-])c1 | 3.26 µM [rising, single point] | –
